# Measurements published in article PMC12040169 (PLOS Biology, 2025).
# The other results are listed elsewhere or left out.
# Tested on: T1, CTL2-GFP (C. trachomatis L2/434/Bu, GFP-expressing)
# T1 construct: L2/434/Bu, GFP-expressing
# Design: species or system HeLa; Intracellular C. trachomatis growth in HeLa cells, bulk GFP fluorescence relative to DMSO
# Settings: bulk GFP, single well; 28.5 h, 10 µM; inhibitor
row,Compound,% of control remaining
1,CCn1c2ccccc2c2cc(/C=N/c3cc(S(=O)(=O)c4ccc(O)c(/N=C/c5ccc6c(c5)c5ccccc5n6CC)c4)ccc3O)ccc21 [CBK261229],61.8409%
2,Cc1nc2[nH]c(=O)nc(N)c2nc1C [CBK025658],121.274%
3,CCSC(SCC)c1ccnn1-c1ccccc1 [CBK019332],133.504%
4,CCOC(=O)c1cnc(O/N=C(\N)c2ccc(C(C)(C)C)cc2)nc1C(F)(F)F [CBK022142],150.764%
5,COC(=O)c1c(NC(=S)NCc2ccc(S(N)(=O)=O)cc2)sc2c1CCC2 [CBK266926],147.954%
6,Cc1ccc(-n2c(C)c(C)c3c(NCCO)cnnc32)cc1 [CBK288162],53.4479%
7,CCc1nc2ccc(C(=O)N3CCNC(=O)C3)cn2c1N(C)C(=O)COc1ccccc1 [CBK145871],184.485%
8,CCOC(=O)CSc1nc(-c2ccc(C)cc2)cs1 [CBK007039],148.427%
9,C=CCn1c(SCC(=O)Nc2ccccn2)nnc1-c1ccc(Br)cc1 [CBK022413],104.233%
10,O=C(Cn1cnc2c(cnn2-c2ccccc2)c1=O)N1CCc2ccccc21 [CBK287529],145.622%
11,Cc1cccc(-c2cc(C(=O)O)c(C)o2)c1 [CBK045855],120.642%
12,Cc1ccc2oc([C@H]3CCN(Cc4ccc(C(=O)O)cc4)C3)nc2c1 [CBK289386],131.442%
13,CCN(CC)S(=O)(=O)c1cc(C(=O)NC2CCCCC2)ccc1Br [CBK058354],155.771%
14,CCCCc1ccc(NC(=S)NN2CCN(C)CC2)cc1 [CBK265741],148.963%
15,Cn1cccc1C1(O)CCCC2CN(C(=O)c3ccco3)CC21 (stereo not shown) [CBK284509],101.766%
16,COc1ccc(CN2CCN(C(=O)c3cccs3)CC2)cc1OC [CBK074410],120.219%
17,COc1ccc(CC(=O)Nc2nnc(C)s2)cc1OC [CBK287359],78.2506%
18,COc1cc2c(cc1CNS(=O)(=O)c1ccc3[nH]c(=O)[nH]c(=O)c3c1)CCC2 [CBK286396],110.652%
19,C(#Cc1ccc(-c2cc[nH]n2)s1)c1ccccc1 [CBK023413],80.9892%
20,COCCN1CC(CNC(=O)Nc2cc(NC(C)=O)ccc2F)CC1=O (stereo not shown) [CBK304398],140.482%
21,O=C(CN1CCCC1)N1CCC(c2cccc(Cc3ccc(C(F)(F)F)cc3)n2)CC1 [CBK286215],107.783%
22,CC(=O)Nc1cccc(-c2nccnc2NCC(c2cccnc2)N(C)C)c1 (stereo not shown) [CBK037998],173.345%
23,CN1CCC(N(C)C(=O)NCC2COc3ccccc3O2)C1 (stereo not shown) [CBK155994],107.394%
24,O=C1N=C(N2CCCCCC2)SC1CC(=O)N1CCCc2ccccc21 (stereo not shown) [CBK063336],110.025%
25,CCOCC(=O)N(C)C(CO)c1cc(OC)ccc1Br (stereo not shown) [CBK304722],116.982%
26,C[C@@H](Nc1nc(-c2cccc3cccnc23)cnc1N)c1ccccc1 [CBK063784],225.165%
27,Cn1c2c(c3ccccc31)CCOC21CCN(Cc2ccc(OC(F)F)cc2)CC1 [CBK039975],105.617%

# Structures listed so far that contain an NH in an aromatic ring:
row,Compound,% of control remaining
2,Cc1nc2[nH]c(=O)nc(N)c2nc1C [CBK025658],121.274%
18,COc1cc2c(cc1CNS(=O)(=O)c1ccc3[nH]c(=O)[nH]c(=O)c3c1)CCC2 [CBK286396],110.652%
19,C(#Cc1ccc(-c2cc[nH]n2)s1)c1ccccc1 [CBK023413],80.9892%

# Three compounds out of the list, sorted by formula weight, low to high:
row,Compound,% of control remaining
2,Cc1nc2[nH]c(=O)nc(N)c2nc1C [CBK025658],121.274%
8,CCOC(=O)CSc1nc(-c2ccc(C)cc2)cs1 [CBK007039],148.427%
12,Cc1ccc2oc([C@H]3CCN(Cc4ccc(C(=O)O)cc4)C3)nc2c1 [CBK289386],131.442%

# (more compounds)

row,Compound,% of control remaining
1,c1ccc(C(CC2CCCCC2)NCc2cccnc2)cc1 (stereo not shown) [CBK073816],131.449%
2,Cc1csc(CNCc2c(C)nn(C)c2N(C)C)n1 [CBK304804],112.107%
3,Cc1nn(C)c(C)c1CN(C)C(=O)CCC1CCCO1 (stereo not shown) [CBK283078],143.9%
4,O=C(O)CSC1=CC(=O)N(c2ccc(Br)cc2)C1=O [CBK287263],127.161%
5,COCCN1CC2=C(C1=O)C(c1ccc(F)cc1)NC(=O)N2 (stereo not shown) [CBK249447],136.684%
6,O=S(=O)(Nc1cccc2nsnc12)c1cccs1 [CBK017018],157.045%
7,CS(=O)(=O)N1CCC(C(=O)NCCN2CCOCC2)CC1 [CBK270151],114.792%
8,CCOc1ccc(N2C(=O)CC(N3CCN(c4ccccn4)CC3)C2=O)cc1 (stereo not shown) [CBK263285],103.21%
9,CC(C)c1cc(C(=O)NCC2CCCN(C(C)C)C2)n(C)n1 (stereo not shown) [CBK282566],101.776%
10,N[C@@H]1CCCN(C(=O)c2ccccc2)[C@H]1c1ccccc1F [CBK281405],75.5269%
11,COc1nccnc1OC1CCN(CCCO)CC1 [CBK084254],154.595%
12,O=S(=O)(Nc1cc(Cl)nc(Cl)c1)c1ccc(-c2cc(C(F)(F)F)on2)s1 [CBK062215],134.108%
13,O=C(CN1C(=O)CCC1=O)Nc1nnc(-c2ccc3c(c2)CCCC3)o1 [CBK287427],162.15%
14,CN(C)c1ccc(/C=N/NC2=NC(=O)CS2)cc1 [CBK019273],116.006%
15,Cc1nc(-c2ccc(NCC(O)c3ccco3)nc2)[nH]c(=O)c1C (stereo not shown) [CBK305254],91.9029%
16,Cc1cc(C(=O)N2CCC(n3c(=O)[nH]c4ccccc43)CC2)no1 [CBK149714],111.171%
17,O=C(O)c1ccc(OCCN2C3=NCCN3c3ccccc32)cc1 [CBK286629],71.93%
18,O=S(=O)(Nc1nccnc1Cl)c1ccccc1Cl [CBK149698],107.508%
19,COc1ccc(OC)c(C(=O)N2CCNC(=O)C2Cc2ccc(-c3cccs3)cc2)c1 (stereo not shown) [CBK285803],67.9137%
20,Cc1ccccc1-n1ncc2c1ncn1nc(-c3ccccc3)nc21 [CBK287797],91.581%
21,N#C/C(=C\c1ccc(-c2ccc3c(c2)C(=O)NC3=O)o1)c1nc2ccccc2[nH]1 [CBK262965],123.522%
22,CC(C)(C)c1ccc(CN2CCN(C(=O)c3ccc(-c4ccc(S(C)(=O)=O)cc4)cn3)CC2)cc1 [CBK160487],82.0209%
23,O=C(NC1CC1)[C@H]1CN2CCC1C[C@@H]2Cn1cc(C2(O)CCCC2)nn1 (stereo partly shown) [CBK289092],131.992%
24,Cc1cccc(CN2CCC(NC(=O)Cn3cc(Br)ccc3=O)CC2)c1 [CBK305669],139.95%
25,CCOc1ncccc1C(=O)Nc1cnc2c(cnn2C(C)C)c1 [CBK306210],116.008%
26,CCNC(=O)C1(Cc2ccccc2-c2ccccc2)CCN(C(=O)c2csc(C)c2)CC1 [CBK285698],139.436%
27,Cc1nn(C)c2ncc(S(=O)(=O)Nc3cc(C(N)=O)ccc3Cl)cc12 [CBK306104],151.642%

row,Compound,% of control remaining
1,OC1CC(c2cc(NCCc3nc4ccccc4o3)ncn2)C1 (stereo not shown) [CBK306573],75.2698%
2,C[C@@H](NC(=O)CCN1C(=O)[C@@H]2Cc3ccccc3CN2C1=O)C(=O)O [CBK286709],110.781%
3,CC(=O)Nc1cccc(-c2nccnc2NS(=O)(=O)c2cccs2)c1 [CBK050760],105.455%
4,CCOc1ccccc1C1C=C(C(=O)O)Nc2c(C(=O)Nc3ccccc3)cnn21 (stereo not shown) [CBK287253],147.18%
5,Cn1c(CCC(=O)Nc2ccc3c(c2)CN(Cc2ccccc2)C3)nc2ccccc21 [CBK285990],104.973%
6,c1csc(-c2nccnc2NCCCN2CCOCC2)c1 [CBK036632],186.962%
7,CCC(=O)Nc1nc(-c2ccco2)c(-c2ccncc2)s1 [CBK284495],110.561%
8,COc1cc(/C=N/NC(=O)C(=O)Nc2ccc(C)c(C)c2)ccc1O [CBK262225],100%
9,COc1ccc(Sc2nccc(C(F)(F)F)n2)cc1OC [CBK093772],114.702%
10,c1coc(-c2nccnc2NCCCN2CCOCC2)c1 [CBK038086],145.236%
11,CCOc1ccc(CC(=O)NC[C@H]2CC[C@H](c3cc(C(N)=O)c4ccccc4n3)CC2)cc1 [CBK285899],118.861%
12,O=C(CN1CCC(NC(=O)c2cccs2)CC1)Nc1ccc(F)c(F)c1 [CBK305991],137.772%
13,CN(C)CC(Oc1ccccc1)C(=O)c1ccccc1 (stereo not shown) [CBK011935C],91.3116%
14,O=C(COc1ccccc1)NCC1(c2ccccc2)CCOCC1 [CBK067407],88.3741%
15,CCOc1cccc(-c2cncc(NCCO)n2)c1 [CBK066075],123.516%
16,CCCCC12CN3CCN(CC(C3)/C1=N\N=C1/C3CN4CCN(C3)CC1(CCCC)C4)C2 [CBK264981],111.623%
17,CCc1ccccc1-c1cccc(C(=O)NCC(O)CN(C)C)c1 (stereo not shown) [CBK306604],110.026%
18,CSCCC(=O)N1CCC2(CCN(Cc3ccccc3)C2)C1 (stereo not shown) [CBK136838],88.272%
19,COc1ccc(-c2cc(C(=O)NCCc3ccc(N)cc3)cnc2-c2ccc(Cl)cc2)cc1 [CBK037561],191.846%
20,O=C(CN1CCCC1=O)NC(Cc1cccs1)c1nccs1 (stereo not shown) [CBK282177],109.238%
21,CS(=O)(=O)N(CC(=O)NC1CCCCC1)c1cccc2ccccc12 [CBK263770],114.27%
22,COc1ccc2[nH]c(=O)c(CN(CCCN3CCOCC3)C(=O)Nc3cccc(Cl)c3)cc2c1 [CBK135402],103.426%
23,COCCN1C(=O)C2(CC(=O)N(CC(=O)N(C)C)C2=O)c2cc(F)ccc21 (stereo not shown) [CBK075428],158.865%
24,Cc1ncoc1C(=O)N1CCC2(C/C=C/C[C@H]3COCC[C@H]3NC(=O)CNC2=O)CC1 [CBK292086],137.9%
25,COc1cc(CN2CCCC3(CCN(C(=O)Cc4c[nH]c5ccccc45)C3)C2)cc(OC)c1OC (stereo not shown) [CBK132027],109.475%
